# In article PMC12741050:
# Protein sequences, listed by entry. Tags and fused reporters are not part of them. Lines headed by an entry give the natural chain unless they say otherwise; changes in a name come on top.
# UniProt P08476: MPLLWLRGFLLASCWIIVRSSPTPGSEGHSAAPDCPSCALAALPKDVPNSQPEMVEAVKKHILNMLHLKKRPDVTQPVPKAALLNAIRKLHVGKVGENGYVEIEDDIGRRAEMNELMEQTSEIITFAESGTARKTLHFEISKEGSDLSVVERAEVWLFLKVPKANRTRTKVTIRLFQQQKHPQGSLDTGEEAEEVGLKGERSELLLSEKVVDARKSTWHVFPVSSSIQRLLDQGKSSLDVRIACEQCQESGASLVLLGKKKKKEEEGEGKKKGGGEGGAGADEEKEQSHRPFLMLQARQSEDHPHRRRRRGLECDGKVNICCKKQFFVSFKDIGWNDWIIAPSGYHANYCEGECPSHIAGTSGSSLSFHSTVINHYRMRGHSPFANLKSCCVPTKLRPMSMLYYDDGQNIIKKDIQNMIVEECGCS
# UniProt P19474: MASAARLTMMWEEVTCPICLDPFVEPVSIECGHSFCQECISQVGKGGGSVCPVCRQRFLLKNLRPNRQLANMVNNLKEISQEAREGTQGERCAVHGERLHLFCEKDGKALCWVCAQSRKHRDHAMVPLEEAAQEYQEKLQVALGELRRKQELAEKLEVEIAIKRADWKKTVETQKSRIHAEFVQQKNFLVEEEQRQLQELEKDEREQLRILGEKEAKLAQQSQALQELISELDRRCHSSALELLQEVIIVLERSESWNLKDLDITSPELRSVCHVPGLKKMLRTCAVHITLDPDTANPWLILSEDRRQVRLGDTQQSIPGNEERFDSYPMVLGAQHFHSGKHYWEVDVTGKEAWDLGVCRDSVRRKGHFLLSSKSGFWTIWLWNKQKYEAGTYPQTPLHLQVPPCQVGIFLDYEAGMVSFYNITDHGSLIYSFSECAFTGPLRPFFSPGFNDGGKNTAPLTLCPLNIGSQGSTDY
# Results are given in words; binding and its absence hold for the method and conditions named. Binding seen in cells or lysates may run through a third protein. Binding calls can cover weak binding; strength is not graded here.
# Target: Flag-INHBA (human inhibin beta A, plasmid human INHBA pcDNA3.1-Flag-C) (human) (UniProt P08476)
# Test: co-IP; CRC cell lysates; protein A/G magnetic beads with antibody or anti-Flag / anti-HA magnetic beads, overnight at 4 °C, six washes with lysis buffer, Western blot
substance,measurement,value
TRIM21 in CRC cells (no TRIM21 construct named) (from UniProt P19474 1-475),binding,binds
